The results in this text go back to the supplement of paper PMC10735217.

For the assay, the system named is HEK293A TEAD-LUC reporter. Nature of the assay: TEAD-luciferase reporter activity (YAP activation), robust Z score vs plate; higher = stronger YAP/TEAD activation. As to conditions: 24 h.

Structures can show the parent of a compound that is named as a salt. The list shows a part of the results. Repeats in this data set agree poorly, so a single value says little.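 The human kidney-derived cells carry a stably integrated construct of eight TEAD-binding elements driving luciferase, read by luminescence in a drug-repurposing library screen. A compound counts as a hit when its signal is more than five robust Z scores above the plate mean.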

Consider `O=[N+]([O-])c1cn2c(n1)OC[C@@H](OCc1ccc(-c3ccc(OC(F)(F)F)cc3)nc1)C2`, for which the TEAD-luciferase reporter activity was inactive: 1.15 (compound concentration: 200 nM), inactive: 0.0529 (compound concentration: 2 uM) and inactive: 0.32 (compound concentration: 10 uM).

Take `Fc1ccc(N2CCN(CCSc3nnc4ccccn34)CC2)c(F)c1`: the TEAD-luciferase reporter activity runs as follows: (compound concentration: 200 nM) inactive: -2.92; (compound concentration: 2 uM) inactive: 0.111; (compound concentration: 10 uM) inactive: -0.291.

Turning to `CN(C)CCCOC1(Cc2ccccc2)CCCCCC1`, the TEAD-luciferase reporter activity (compound concentration: 200 nM) was inactive: 0.565, the TEAD-luciferase reporter activity (compound concentration: 2 uM) is inactive: -0.153 and the TEAD-luciferase reporter activity (compound concentration: 10 uM) was inactive: 0.83.

For `O=C(NCC1CC1)C1CN(c2ccccc2)C(=O)N1` (stereo not drawn), the TEAD-luciferase reporter activity was inactive: 4.79 (compound concentration: 200 nM) and inactive: 3.66 (compound concentration: 10 uM).

With `CC(=O)SCC(C)C(=O)Nc1cccc(C(=O)O)c1` (stereo not drawn), the TEAD-luciferase reporter activity by setting is: (compound concentration: 200 nM) inactive: -1.58; (compound concentration: 2 uM) inactive: -0.707; (compound concentration: 10 uM) inactive: 0.131.

Take `C#CCOC[C@H]1CO[C@](Cn2ccnc2)(c2ccc(Cl)cc2Cl)O1` [Parconazole]: the TEAD-luciferase reporter activity reads like this: (compound concentration: 200 nM) inactive: -1.55; (compound concentration: 2 uM) inactive: 0.728; (compound concentration: 10 uM) inactive: 0.844.

On to `Cc1cc(Nc2ncc(F)c(N[C@@H]3[C@H](C(N)=O)[C@H]4C=C[C@@H]3C4)n2)ccc1N1CCN(C)CC1`, for which the TEAD-luciferase reporter activity by setting is: (compound concentration: 200 nM) inactive: -0.00932; (compound concentration: 2 uM) inactive: 0.761; (compound concentration: 10 uM) inactive: 2.72.

Turning to `C/C=C/C1=C(C(=O)O)N2C(=O)[C@@H](NC(=O)/C(=N\O)c3csc(N)n3)[C@H]2SC1`, the TEAD-luciferase reporter activity is inactive: -1.88 (compound concentration: 200 nM), inactive: -0.0673 (compound concentration: 2 uM) and inactive: -0.575 (compound concentration: 10 uM).

Consider `CCCn1nc(-c2ccccc2)ccc1=O`, for which the TEAD-luciferase reporter activity by setting is: (compound concentration: 200 nM) inactive: 3.13; (compound concentration: 2 uM) inactive: -2.29; (compound concentration: 10 uM) active: 5.01.

For the compound `CC(=O)N1CCC2(CC1)CN(C(=O)CCCNC(N)=O)Cc1ccccc1O2`, the TEAD-luciferase reporter activity is, setting by setting: (compound concentration: 200 nM) inactive: 0.0329; (compound concentration: 10 uM) active: 77.

With `CN(C(=O)C1CC1)C1CCc2ccccc21` (stereo not drawn), the TEAD-luciferase reporter activity was inactive: -1.42 (compound concentration: 200 nM) and inactive: 0.808 (compound concentration: 10 uM).

Turning to `CCOc1ccc2nc(S(N)(=O)=O)sc2c1`, the TEAD-luciferase reporter activity runs as follows: (compound concentration: 200 nM) inactive: -1.47; (compound concentration: 2 uM) inactive: 1.35; (compound concentration: 10 uM) inactive: 2.02.

Turning to `COCC(=O)Nc1c(I)c(C(=O)NCC(O)CO)c(I)c(C(=O)N(C)CC(O)CO)c1I` (stereo not drawn) [peptide analogues], the TEAD-luciferase reporter activity (compound concentration: 2 uM) is inactive: -0.779.

Regarding `COCC(=O)Nc1c(I)c(C(=O)NCC(O)CO)c(I)c(C(=O)N(C)CC(O)CO)c1I` (stereo not drawn) [peptide analogues, ResCo], the TEAD-luciferase reporter activity is, setting by setting: (compound concentration: 200 nM) inactive: -2.78; (compound concentration: 10 uM) active: 5.21.

In the case of `COc1c(N2CCC(=O)CC2)c(F)cc2c(=O)c(C(=O)O)cn(C3CC3)c12`, the TEAD-luciferase reporter activity (compound concentration: 200 nM) was inactive: -0.993, the TEAD-luciferase reporter activity (compound concentration: 2 uM) is inactive: -1.17 and the TEAD-luciferase reporter activity (compound concentration: 10 uM) is inactive: 2.94.

With `CCCc1nc(C)n2[nH]c(=O)nc2c1Cc1ccc(-c2ccccc2-c2nnn[nH]2)cc1`, the TEAD-luciferase reporter activity is inactive: -1.32 (compound concentration: 200 nM) and inactive: 2.29 (compound concentration: 10 uM).

Regarding `Brc1ccc(NC2C3CC4CC(C3)CC2C4)cc1` (stereo not drawn) [Ladasten], the TEAD-luciferase reporter activity (compound concentration: 200 nM) was inactive: -0.827, the TEAD-luciferase reporter activity (compound concentration: 2 uM) was inactive: -0.451 and the TEAD-luciferase reporter activity (compound concentration: 10 uM) is inactive: -1.3.

As for `C[C@]1(O)C[C@@H](c2nc(-c3ccc4ccc(-c5ccccc5)nc4c3)c3c(N)nccn32)C1` [Linsitinib], the TEAD-luciferase reporter activity runs as follows: (compound concentration: 200 nM) inactive: -1.15; (compound concentration: 2 uM) inactive: 0.321; (compound concentration: 10 uM) inactive: -0.289.

As for `Cc1nc2ccc(Oc3ccccc3)cc2c2c1CCN2c1ccc(C(C)C)cc1`, the TEAD-luciferase reporter activity is, setting by setting: (compound concentration: 200 nM) inactive: -0.996; (compound concentration: 2 uM) inactive: 2.28; (compound concentration: 10 uM) inactive: -0.561.

As for `Cn1cnc2c(F)c(Nc3ccc(Br)cc3Cl)c(C(=O)NOCCO)cc21` [selumetinib], the TEAD-luciferase reporter activity is, setting by setting: (compound concentration: 200 nM) inactive: -1.28; (compound concentration: 2 uM) inactive: 1.12; (compound concentration: 10 uM) inactive: -1.03.

For `N=C(N)NN1Cc2c(Cl)ccc(Cl)c2C1`, the TEAD-luciferase reporter activity is inactive: 1.84 (compound concentration: 200 nM), inactive: -0.337 (compound concentration: 2 uM) and inactive: -0.18 (compound concentration: 10 uM).

With `CC(C)C[C@H](NC(=O)[C@H](CC(N)=O)NC(=O)[C@H](CCCNC(=N)N)NC(=O)[C@H](CC(C)C)NC(=O)[C@H](CO)NC(=O)[C@H](CCC(=O)O)NC(=O)[C@@H](N)CCCNC(=N)N)C(=O)N[C@@H](CCCNC(=N)N)C(=O)NCC(=O)N[C@@H](Cc1ccc(O)cc1)C(=O)O`, the TEAD-luciferase reporter activity is, setting by setting: (compound concentration: 200 nM) inactive: -0.102; (compound concentration: 2 uM) inactive: 1.2; (compound concentration: 10 uM) inactive: 0.386.

As to `CNCCC(Oc1ccc(C(F)(F)F)cc1)c1ccccc1` (stereo not drawn) [fluoxetine HCl], the TEAD-luciferase reporter activity (compound concentration: 2 uM) was inactive: -1.79.

On to `CNCCC(Oc1ccc(C(F)(F)F)cc1)c1ccccc1` (stereo not drawn), for which the TEAD-luciferase reporter activity was inactive: 0.06 (compound concentration: 200 nM) and inactive: -0.213 (compound concentration: 10 uM).

In the case of `C[C@@H](C1CCCCC1)n1c(-c2cc3c(cc2Br)OCO3)nc2cc(C(=O)Nc3ccc(C#N)cc3)ccc21`, the TEAD-luciferase reporter activity was inactive: -0.328 (compound concentration: 200 nM) and inactive: -0.526 (compound concentration: 10 uM).

In the case of `O=C(O)Cc1cc(I)c(Oc2ccc(O)c(I)c2)c(I)c1` [_q_Tiratricol, 3,3',5-triiodothyroacetic acid_q_], the TEAD-luciferase reporter activity by setting is: (compound concentration: 200 nM) inactive: -0.641; (compound concentration: 10 uM) inactive: -0.394.

Regarding `O=C(O)Cc1cc(I)c(Oc2ccc(O)c(I)c2)c(I)c1` [Triiodothyroacetic], under “compound concentration: 2 uM”, the TEAD-luciferase reporter activity is inactive: -1.03.

For the compound `CC(=O)OCC(=O)[C@@]1(O)CC[C@H]2[C@@H]3CCC4=CC(=O)C=C[C@]4(C)[C@H]3[C@@H](O)C[C@@]21C`, the TEAD-luciferase reporter activity reads like this: (compound concentration: 200 nM) inactive: -1.12; (compound concentration: 10 uM) inactive: 0.519.

As for `CC(=O)OCC(=O)[C@@]1(O)CC[C@H]2[C@@H]3CCC4=CC(=O)C=C[C@]4(C)[C@H]3[C@@H](O)C[C@@]21C` [Prednisolone acetate], the TEAD-luciferase reporter activity (compound concentration: 2 uM) is inactive: -1.22.

Turning to `CCCOc1sc(C(=O)N2CCC(c3cc(CC)ccc3F)CC2)c(C)c1Br`, the TEAD-luciferase reporter activity runs as follows: (compound concentration: 200 nM) inactive: -0.83; (compound concentration: 2 uM) inactive: -1.36; (compound concentration: 10 uM) inactive: -1.32.
